Taken from: PubChem BioAssay AID743121 (NCATS, 2013)
In all, the deposit lists about 26,000 reagents; shown is an unselected part. Over the whole deposit, 167 (0.63%) got an active call. 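Calls are per gene from RSA p-values that are not deposited; an individual active-marked siRNA can sensitise only weakly.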 Reagents against one gene are numbered here. Not all columns of the deposit are shown. No sequences are given here.

Assay: 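Genes whose silencing strengthens cell killing by camptothecin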 (primary screen)
Cell system: MDA-MB-231 cells, a human breast cancer line
Reagents: single siRNA against human genes, 20 nM siRNA (0.8 pmol per well)
Time to read-out: 120 h (drug added 48 h after transfection, read 72 h later)
Challenge: camptothecin 20 nM (about EC30) for 72 h; vehicle 0.1% DMSO in parallel plates
Measured: 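CellTiter-Glo ATP signal, scaled to control siRNA as percent viability; sensitisation given as log2 of untreated divided by camptothecin-treated viability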
Scale: log2 vehicle/camptothecin viability: higher = stronger sensitisation to camptothecin; viability with camptothecin: higher = more viable cells
Units: viability with camptothecin in % of control
Rule for the call: 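Active genes have an RSA gene-level p-value below 0.001, computed from the ratios of their separate siRNAs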

AP3S1 #1: log2 vehicle/camptothecin viability = 0.208; viability with camptothecin = 85.2; activity call = inactive
AP3S1 #2: log2 vehicle/camptothecin viability = -0.309; viability with camptothecin = 86.7; activity call = inactive
AP3S1 #3: log2 vehicle/camptothecin viability = 0.312; viability with camptothecin = 29; activity call = inactive
C1S #1: log2 vehicle/camptothecin viability = -0.062; viability with camptothecin = 106; activity call = inactive
C1S #2: log2 vehicle/camptothecin viability = 0.0433; viability with camptothecin = 88.6; activity call = inactive
C1S #3: log2 vehicle/camptothecin viability = -0.142; viability with camptothecin = 96.9; activity call = inactive
C1S #4: log2 vehicle/camptothecin viability = 0.775; viability with camptothecin = 17.2; activity call = inactive
SMAD1 #1: log2 vehicle/camptothecin viability = -0.0218; viability with camptothecin = 64.3; activity call = inactive
SMAD1 #2: log2 vehicle/camptothecin viability = -0.2; viability with camptothecin = 57.4; activity call = inactive
SMAD1 #3: log2 vehicle/camptothecin viability = -0.636; viability with camptothecin = 92.1; activity call = inactive
FN1 #1: log2 vehicle/camptothecin viability = 1.11; viability with camptothecin = 31.6; activity call = inactive
FN1 #2: log2 vehicle/camptothecin viability = -0.0604; viability with camptothecin = 98.7; activity call = inactive
FN1 #3: log2 vehicle/camptothecin viability = -0.0382; viability with camptothecin = 95; activity call = inactive
FN1 #4: log2 vehicle/camptothecin viability = -0.14; viability with camptothecin = 61.4; activity call = inactive
GEM #1: log2 vehicle/camptothecin viability = -0.0861; viability with camptothecin = 52.7; activity call = inactive
GEM #2: log2 vehicle/camptothecin viability = -0.54; viability with camptothecin = 92.6; activity call = inactive
GEM #3: log2 vehicle/camptothecin viability = 0.313; viability with camptothecin = 69.6; activity call = inactive
GEM #4: log2 vehicle/camptothecin viability = 0.065; viability with camptothecin = 77.8; activity call = inactive

Ordered by “viability with camptothecin” (highest first): 6 of the entries above
C1S #1: log2 vehicle/camptothecin viability = -0.062; viability with camptothecin = 106; activity call = inactive
C1S #3: log2 vehicle/camptothecin viability = -0.142; viability with camptothecin = 96.9; activity call = inactive
C1S #2: log2 vehicle/camptothecin viability = 0.0433; viability with camptothecin = 88.6; activity call = inactive
SMAD1 #1: log2 vehicle/camptothecin viability = -0.0218; viability with camptothecin = 64.3; activity call = inactive
SMAD1 #2: log2 vehicle/camptothecin viability = -0.2; viability with camptothecin = 57.4; activity call = inactive
C1S #4: log2 vehicle/camptothecin viability = 0.775; viability with camptothecin = 17.2; activity call = inactive

More reagents:
EAF1 #1: log2 vehicle/camptothecin viability = -0.064; viability with camptothecin = 87.7; activity call = inactive
EAF1 #2: log2 vehicle/camptothecin viability = -0.114; viability with camptothecin = 115; activity call = inactive
EAF1 #3: log2 vehicle/camptothecin viability = -0.049; viability with camptothecin = 58.9; activity call = inactive
EAF1 #4: log2 vehicle/camptothecin viability = 0.248; viability with camptothecin = 23; activity call = inactive
CKB #1: log2 vehicle/camptothecin viability = 0.0522; viability with camptothecin = 40.8; activity call = inactive
CKB #2: log2 vehicle/camptothecin viability = 0.523; viability with camptothecin = 13; activity call = inactive
CKB #3: log2 vehicle/camptothecin viability = -0.146; viability with camptothecin = 81.4; activity call = inactive
CKB #4: log2 vehicle/camptothecin viability = -0.325; viability with camptothecin = 73; activity call = inactive
YEATS4 #1: log2 vehicle/camptothecin viability = -0.517; viability with camptothecin = 75.5; activity call = inactive
YEATS4 #2: log2 vehicle/camptothecin viability = 1.05; viability with camptothecin = 43.8; activity call = inactive
YEATS4 #3: log2 vehicle/camptothecin viability = 0.00372; viability with camptothecin = 68.1; activity call = inactive
TPP2 #1: log2 vehicle/camptothecin viability = -0.565; viability with camptothecin = 101; activity call = inactive
TPP2 #2: log2 vehicle/camptothecin viability = -0.057; viability with camptothecin = 92.4; activity call = inactive
TPP2 #3: log2 vehicle/camptothecin viability = -0.102; viability with camptothecin = 119; activity call = inactive
TPP2 #4: log2 vehicle/camptothecin viability = -0.0916; viability with camptothecin = 104; activity call = inactive
ARHGAP17 #1: log2 vehicle/camptothecin viability = 0.541; viability with camptothecin = 55.6; activity call = inactive
ARHGAP17 #2: log2 vehicle/camptothecin viability = -0.582; viability with camptothecin = 85.5; activity call = inactive
ARHGAP17 #3: log2 vehicle/camptothecin viability = -0.362; viability with camptothecin = 99.1; activity call = inactive
ARHGAP17 #4: log2 vehicle/camptothecin viability = -0.397; viability with camptothecin = 60.3; activity call = inactive
